Laboratory results reported in US12648964B2, “Chimeric Tim receptors and uses thereof” (CERO THERAPEUTICS HOLDINGS, INC., priority 2020, dated 2026).

Test system: transduced CER T cells
Experiment: Cell surface chimeric Tim4 receptor expression on transduced T cells (anti-Tim-4 antibody 9F4, flow cytometry)
Type: cell-based
Conditions: vs mock transduced controls

Molecule | Tim4 expression on transduced cells
pCTX247: Tim4 binding domain-CD28 transmembrane-CD28 signaling domain-CD3z signaling domain (protein) ETVVTEVLGHRVTLPCLYSSWSHNSNSMCWGKDQCPYSGCKEALIRTDGMRVTSRKSAKYRLQGTIPRGDVSLTILNPSESDSGVYCCRIEVPGWFNDVKINVRLNLQRASTTTHRTATTTTRRTTTTSPTTTRQMTTTPAALPTTVVTTPDLTTGTPLQMTTIAVFTTANTCLSLTPSTLPEEATGLLTPEPSKEGPILTAESETVLPSDSWSSVESTSADTVLLTSKESKVWDLPSTSHVSMWKTSDSVSSPQPGASDTAVPEQNKTTKTGQMDGIPMSMKNEMPISQFWVLVVVGGVLACYSLLVTVAFIIFWVRSKRSRLLHSDYMNMTPRRPGPTRKHYQPYAPPRDFAAYRSRVKFSRSADAPAYQQGQNQLYNELNLGRREEYDVLDKRRGRDPEMGGKPRRKNPQEGLYNELQKDKMAEAYSEIGMKGERRRGKGHDGLYQGLSTATKDTYDALHMQALPPR | Tim4 expression was observed
pCTX1107: Tim4 binding domain-CD28 signaling domain-CD3z signaling domain-TLR2 signaling domain (protein, left off: large carriers) ETVVTEVLGHRVTLPCLYSSWSHNSNSMCWGKDQCPYSGCKEALIRTDGMRVTSRKSAKYRLQGTIPRGDVSLTILNPSESDSGVYCCRIEVPGWFNDVKINVRLNLQRASTTTHRTATTTTRRTTTTSPTTTRQMTTTPAALPTTVVTTPDLTTGTPLQMTTIAVFTTANTCLSLTPSTLPEEATGLLTPEPSKEGPILTAESETVLPSDSWSSVESTSADTVLLTSKESKVWDLPSTSHVSMWKTSDSVSSPQPGASDTAVPEQNKTTKTGQMDGIPMSMKNEMPISQRSKRSRLLHSDYMNMTPRRPGPTRKHYQPYAPPRDFAAYRSRVKFSRSADAPAYQQGQNQLYNELNLGRREEYDVLDKRRGRDPEMGGKPRRKNPQEGLYNELQKDKMAEAYSEIGMKGERRRGKGHDGLYQGLSTATKDTYDALHMQALPPRHRFHGLWYMKMMWAWLQAKRKPRKAPSRNICYDAFVSYSERDAYWVENLMVQELENFNPPFKLCLHKRDFIPGKWIIDNIIDSIEKSHKTVFVLSENFVKSEWCKYELDFSHFRLFDENNDAAILILLEPIEKKAIPQRFCKLRKIMNTKTYLEWPMDEAQREGFWVNLRAAIKS | Tim4 expression was observed
